These results are taken from paper PMC7353009, “Identification of Substrates of Cytoplasmic Peptidyl-Prolyl Cis/Trans Isomerases and Their Collective Essentiality in Escherichia Coli” (International Journal of Molecular Sciences, 2020).

No constants are given. Whether binding was seen depends on the method and setting. In cells and extracts the contact can be indirect.

This experiment addresses PpiC F81A::3xFLAG (chromosomal) (E. coli). The experiment can be described thus: co-IP; cell extracts of strains with chromosomal single-copy 3xFLAG-tagged PpiC, ANTI-FLAG M2 gel, 12 h at 4 °C, native elution with 3xFLAG peptide, SDS-PAGE and silver staining.

B1: GrxB (protein, UniProt P0AC59 1-215)
chain: MKLYIYDHCPYCLKARMIFGLKNIPVELHVLLNDDAETPTRMVGQKQVPILQKDDSRYMPESMDIVHYVDKLDGKPLLTGKRSPAIEEWLRKVNGYANKLLLPRFAKSAFDEFSTPAARKYFVDKKEASAGNFADLLAHSDGLIKNISDDLRALDKLIVKPNAVNGELSEDDIQLFPLLRNLTLVAGINWPSRVADYRDNMAKQTQINLLSSMAI
Consider B1, for which the binding result is “no binding”.

B2: SeqA (protein, UniProt P0AFY8 1-181)
chain: MKTIEVDDELYSYIASHTKHIGESASDILRRMLKFSAASQPAAPVTKEVRVASPAIVEAKPVKTIKDKVRAMRELLLSDEYAEQKRAVNRFMLLLSTLYSLDAQAFAEATESLHGRTRVYFAADEQTLLKNGNQTKPKHVPGTPYWVITNTNTGRKCSMIEHIMQSMQFPAELIEKVCGTI
Take B2: the binding result is recorded as “no binding”.

B3: YrdA (protein, UniProt P0A9W9 1-184)
chain: MSDVLRPYRDLFPQIGQRVMIDDSSVVIGDVRLADDVGIWPLVVIRGDVHYVQIGARTNIQDGSMLHVTHKSSYNPDGNPLTIGEDVTVGHKVMLHGCTIGNRVLVGMGSILLDGAIVEDDVMIGAGSLVPQNKRLESGYLYLGSPVKQIRPLSDEEKAGLRYSANNYVKWKDEYLDQGNQTQP
Turning to B3, the binding entry is “no binding”.
